Laboratory results reported in PubChem BioAssay AID2685 (National Center for Advancing Translational Sciences (NCATS), 2010).
The whole screen tested about 320,000 compounds, of which about 2,100 (0.66%) were called active. This list was built around the results that the source calls inconclusive (neither active nor inactive); the mix of calls is not that of the screen. Calls follow the shape of the dose curve; as a rule, active = well fitted inhibition curve with a large enough effect in the signal ratio, with a control signal flat (not every such curve was filed as active); inconclusive = small, poorly fitted or top-dose-only effect, or effect the other way, or a change in a side signal; inactive = flat fitted curve, though single readings scatter; the % refers to the signal ratio. Where the call is inconclusive, the potency comes from a doubtful curve fit.

Experiment: qHTS Assay for Lipid Storage Modulators in Drosophila S3 Cells
Settings: BODIPY lipid droplet fluorescence, 18-24 h, cells fed with added oleic acid; lipid storage change, negative = inhibition: at 46.1 µM (top of the series) unless noted
Outline: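 Drosophila S3 cells loaded with oleic acid (400 uM, as added) and compounds at several concentrations; lipid droplets imaged by 488-nm laser-scanning cytometry, 500–530 nm intensity and object ratio to cell channel. Percent activity normalized to 20 uM Triacsin C.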
% is scaled to controls: 0 for no effect and ±100 for the full control effect; potency is read from the fitted curve at half-maximal effect.

Lipid storage change, negative = inhibition, inconclusive:
Cc1ccc(NC(=O)CSc2nc3ccccc3c(=O)n2CC2CCCO2)cc1 (configuration not stated) 4.86%
COc1ccccc1NS(=O)(=O)c1cccc(C(=O)N(C)Cc2cccs2)c1 8.12%
COc1ccc(/C(=N/OC(C)=O)c2nccc3cc(OC)c(OC)cc23)cc1OC 30.2%
Cc1ccc(NC(=O)C2CCCN(C(=O)NCc3ccccc3)C2)c(C)c1 (configuration not stated) 108%
O=C(Nc1cccc(-c2ccc(N3CCCCC3)nn2)c1)c1ccc(Br)o1 44.2%
Nc1c(C(=O)NCCc2ccc(Cl)cc2)sc2ccc(S(=O)(=O)N3CCCCC3)cc12 -20.9%
C[C@]12CCC(=O)C=C1CC[C@@H]1[C@@H]2CC[C@@]2(C)[C@H]1CC[C@]2(O)C(=O)CO 1.92%
CCOc1ccc(C(=O)Nc2cc(-c3nc4ccccc4[nH]3)ccc2C)cc1[N+](=O)[O-] -30.6%
CCOC(=O)c1sc(N2C(=O)C(O)=C(C(=O)c3ccco3)C2c2ccc(C)o2)nc1C (configuration not stated) -25.4%
CCC(C)/C(C)=N/Nc1ccc(S(N)(=O)=O)cc1[N+](=O)[O-] (configuration not stated) -5.61%
Cc1ccccc1NC(=S)N/N=C/C(C)c1ccccc1 (configuration not stated) 42.3%
COC(=O)C(=C/C=C/c1cccnc1)C(=O)OC -29.3%
O=C(Nc1cccc(S(=O)(=O)NC2=NCCCCC2)c1)c1cc(-c2ccccc2Cl)nc2ccccc12 37%
COC(=O)c1cccc(NC(=O)CN(c2ccc3c(c2)OCO3)S(C)(=O)=O)c1C 15.4%
Oc1ccccc1CNc1cnc2ccccc2c1 -23.3%
O=C(CCCCn1c(=O)[nH]c2ccccc2c1=O)NCCc1c[nH]c2ccccc12 18.5%
N#CC1(NC(=O)CN2C(=O)NC(c3ccccc3)(c3ccccc3)C2=O)CCCC1 11.9%
COCCNC(=O)c1ccc2c3n(nc2c1)-c1ccc(Cl)cc1CO3 16.8%
Cc1ccc(S(=O)(=O)NCc2ccccc2)cc1 -15.6%
CC(C)c1ccc(C2(C)NC(=O)N(CC(=O)NC3(C#N)CCCC3)C2=O)cc1 (configuration not stated) -26.1%
CN(C(=O)c1ccc(NC(=O)Cc2ccc(NC(=O)C3CCCN(C(=O)C4CCCC4)C3)cc2)cc1)C1CC1 (configuration not stated) -56.6%
O=C(Nc1cc([N+](=O)[O-])ccc1F)c1cccs1 23.6%
Nc1cc(N2CCOCC2)c(Cl)cc1[N+](=O)[O-] -6.96%
O=C(CCC(=O)N1CCN(S(=O)(=O)c2ccccc2Cl)CC1)c1ccccc1 80.7%
Cc1cc(NC(=O)c2cccnc2)ccc1NC(=O)c1cc2ccccc2o1 29.1%
CC(C)C(NS(=O)(=O)c1cccs1)C(=O)Nc1nc(C(C)(C)C)cs1 (configuration not stated) -24.5%
Cc1nnc(Oc2ccccc2)c2ccccc12 35.1%
CN(C(=O)COC(=O)c1cc(S(=O)(=O)N2CCOCC2)ccc1Cl)C1CCS(=O)(=O)C1 (configuration not stated)
CC(=O)N(CN1C(=O)C2C3C=CC(C3)C2C1=O)c1cccc(Cl)c1 (configuration not stated) 27.8%
CS(=O)(=O)N1CCN(c2ccc([N+](=O)[O-])cc2C(F)(F)F)CC1 37.5%

Lipid storage change, negative = inhibition, inactive:
CC(=C/c1ccccc1)/C=N/NC(=O)c1ccccn1

Potency, inconclusive:
Cc1sc2nc(C3CC3)nc(NCCNS(C)(=O)=O)c2c1C 13 µM [activator, single point]
Cc1cc(C)c2oc(C(=O)NCCc3ccc(S(N)(=O)=O)cc3)cc(=O)c2c1 3.66 µM [activator, full curve, poor fit]
CCCCN1C(Nc2ccccc2)=NC[C@@H]1CC(C)C 0.082 µM [activator, full curve, poor fit]
COc1ccc(COc2ccc(C3C(S(=O)(=O)c4ccccc4)CON3C)cc2OC)cc1 (configuration not stated) 3.26 µM [falling, full curve, poor fit]
Cc1sc2ncnc(N/N=C/c3ccc(O)cc3)c2c1C 16.4 µM [falling, single point]
O=C(CNS(=O)(=O)c1c(Cl)cccc1Cl)OCc1csc(-c2ccccc2)n1 14.6 µM [activator, single point]
O=S(=O)(c1cccc(-n2cnnn2)c1)N1CCOCC1 25.9 µM [falling, single point]
Cc1ccc(N(C)C(=O)N2CCN(S(=O)(=O)c3ccc(C)c(C)c3)CC2)cc1 3.26 µM [activator, single point]
O=C(NC(=S)Nc1ccc(Cc2ccncc2)cc1)c1ccccc1 3.66 µM [activator, full curve]
COc1ccc2[nH]c(=O)c(CN(Cc3nnnn3Cc3ccc(F)cc3)CC3CCCO3)cc2c1 (configuration not stated) 6.51 µM [activator, partial curve]
COc1ccc(S(=O)(=O)N(C)CC(=O)NC2CC2)cc1 0.58 µM [falling, full curve]
CCC(Sc1nnc(C)c(=O)[nH]1)C(=O)Nc1cccc2ccccc12 (configuration not stated) 1.16 µM [falling, single point]
COC(=O)c1ccccc1NC(=O)CS(=O)(=O)Cc1nc(-c2ccc(C)cc2)oc1C 6.51 µM [activator, partial curve, poor fit]
CCN(CC)CC(=O)Nc1ccc([N+](=O)[O-])cc1 5.17 µM [falling, single point]
c1cncc(-c2nnc(SCc3nc4ccccc4[nH]3)o2)c1 0.13 µM [rising, full curve, poor fit]
COc1ccc(N(Cc2cc(=O)[nH]c3ccccc23)C(=O)CCl)cc1 29.1 µM [falling, single point]

Three compounds drawn at random from those above, as already listed:
Potency, inconclusive:
Cc1sc2nc(C3CC3)nc(NCCNS(C)(=O)=O)c2c1C 13 µM [activator, single point]
COc1ccc(N(Cc2cc(=O)[nH]c3ccccc23)C(=O)CCl)cc1 29.1 µM [falling, single point]
O=C(CNS(=O)(=O)c1c(Cl)cccc1Cl)OCc1csc(-c2ccccc2)n1 14.6 µM [activator, single point]
